Source: publication PMC10163288
The list shows a part of the results.

B1: il10ra_site1_sap_19_mot_HHH_b2_02022_af2_000000170_0001_1_16_H_._107009d5f73eb0e6f3dc327d02cea2e3_0001_1_af2_0001_0000500018_0000001_0_0001 (protein)
chain: SSSSDAREEALRLAQEAFHLALRGNPEEARELLEEAEKLAEEINDERLLEVIRNLLEAVRSSSSS
B2: il10ra_site1_normal_mot_HHH_b2_07579_000000275_0001_1_19_H_._HHH_b1_03645_0001_0000100011_0000001_0_af2pred_0001 (protein)
chain: SSSSSSKAEEVVRLIREAIRLLKEGNPEQAREVLEEALRIAEEAGNPLLEISVRHLLRTISSSSS
B3: il10ra_site1_sap_17_mot_HHH_b1_06583_000000064_0001_43_57_H_._HHH_b2_06223_0001_0000100001_0000001_0_0001 (protein)
chain: SSSSSDELQEALRLSQEAFHAALRGDKEEAERLLEEALELAERGNDERLAEVIRDLLEALSSSSS
B4: il10ra_site1_normal_mot_HHH_b1_06816_000000239_0001_1_19_H_._HHH_b1_08301_0001_0000100003_0000002_0 (protein)
chain: SSSSSDLEEEVEELLEKAEHIEDPDEAFEILREAIELASEANDPELFELIMEVIRKWLNSSSSSS
B5: il10ra_site1_sap_24_mot_HHH_b2_02267_000000141_0001_1_20_H_._HHH_b2_01742_af2_0001_0000300017_0000002_0_0001 (protein)
chain: SSSSDTMEELIKALLRLLRQAIEIGNERSARSLAEAVRLAIERANDEEAEEELKELEKLLKSSSS
B6: il10ra_site1_sap_17_mot_HHH_b2_04006_000000143_0001_42_56_H_._3ff75f044bbd266f07abdfc5542de534_0001_0001_0000400011_0000001_0_0001 (protein)
chain: SSSSDEAYRIAEEAIEEALRLLREGDPEEAHKLLEEALRLLEELGNWVAVWSLRHLLRAEFSSSS
B7: il10ra_site1_sap_18_mot_HHH_b1_00665_000000097_0001_23_39_H_._HHH_b1_06912_af2_0001_0000200007_0000001_1_0001 (protein)
chain: SSSSDEEEERIRELLERVEELLEEGDWERASKLAQEALRLIYRANDEELLQELWEIIASNSSSSS
B8: il10ra_site1_sap_25_mot_HHH_b2_03183_af2_000000055_0001_40_56_H_._HHH_b1_07492_0001_0000200020_0000001_0_0001 (protein)
chain: SSSSDEAEERLEELLEEAERLLEEGDPREALRVLQEAVRFAIRAGDEETLQRIWELVKKVASSSS
B9: il10ra_site1_normal_mot_HHH_b2_02337_000000026_0001_38_52_H_._HHH_b2_01503_0001_0000100001_0000002_0 (protein)
chain: SSSSSEEVEELLEEARELLEKGNPEEAARVLAEAARFAHRLGDEELLQLVWELVRKVAEASSSSS
B10: il10ra_site1_normal_mot_HHH_b1_02492_000000051_0001_1_21_H_._HHH_b1_07524_0001_0000100003_0000001_0_af2pred_0001 (protein)
chain: SSSSSDEEFEEEVRELLEQAERTDDPQERFELLRKAIELALEGNNPELIKEVREVARRLFSSSSS
B11: il10ra_site1_sap_20_mot_HHH_b1_01167_000000070_0001_1_20_H_._HHH_b1_00963_0001_0000100014_0000002_0_0001 (protein)
chain: DEEEAISLAIRHQAEWAGVPSVEVSFSNGELTVTFEGDDRSVRQAILAARAMADLYRLTLTYSEE
B12: il10ra_site1_sap_16_mot_HHH_b2_05540_000000178_0001_1_18_H_._HHH_b1_01113_af2_0001_0000100001_0000001_0_0001 (protein)
chain: SSSSSSSELEELLEEIEEALERGDPEAAARLSVEAVELAAERDDKEVIRELQRLNREIFSSSSSS
B13: il10ra_site1_normal_mot_HHH_b2_00441_000000147_0001_1_18_H_._HHH_b1_03644_0001_0000100004_0000001_0 (protein)
chain: SSSSDVEEYVRLSLRFARWLFEENDEEALRRIVKAIEDLARRENSEEVQEILKEVEELLKSSSSS
B14: il10ra_site1_sap_17_mot_HHH_b2_00066_000000124_0001_1_17_H_._HHH_b1_02981_0001_0000400024_0000001_0_0001 (protein)
chain: SSSSSSEEYHEEVRELLEEAEHIEDPEERMRVLMEALKLAYHGKDPEALQLVWEVVRRLSSSSSS
B15: il10ra_site1_sap_20_mot_HHH_b2_02463_af2_000000222_0001_1_19_H_._HHH_b1_03757_af2_0001_0000200004_0000001_0_0001 (protein)
chain: SSSSDESEEVLEEAEELLKEAQERGDAQLRYRILKEAIELLLRLGDPQAAQRLAEFFIRLSSSSS
B16: il10ra_site1_sap_15_mot_8756ee2cf497b5429c717dfc0c0bcfd6_0001_000000186_0001_1_13_H_._HHH_b1_06578_af2_0001_0000200019_0000001_0_0001_af2pred_0001 (protein)
chain: DEEREVELILRFLARAAGVKSVSVTTENGQVTVTVENVSPEAKELIEAAVRALRLRGLNVSFSTE
B17: il10ra_site1_normal_mot_HHH_b2_04275_000000272_0001_20_36_H_._HHH_b2_05523_af2_0001_0000200036_0000001_0 (protein)
chain: SSSSNEEIQEAYELLEKLSEAEHNGNEEEFEKIAEEIEELIRKLGNELLRAQLEFLERLLGSSSS
B18: il10ra_site1_normal_mot_HHH_b1_01827_000000263_0001_1_19_H_._HHH_b2_07433_0001_0000200007_0000001_0 (protein)
chain: SSSSSTEEFRRVRELIEEALQIEDEEEARRLLQEAVELAEEGGNLVLLWSAEYALRQLEESSSSS
B19: il10ra_site1_sap_27_mot_HHH_b2_02497_000000141_0001_1_20_H_._HHH_b2_04046_0001_0000400045_0000001_0_0001_af2pred_dldesign_0_af2pred (protein)
chain: SSSSSEKKKQWDLLVKTYRLIKEGKLEEAKKLLEELRAAAEKSGDPTLLHAVEVLEEELESSSSS
B20: il10ra_site1_normal_mot_2c1a291787c6f40772924d4e9068d803_0001_af2_000000222_0001_34_48_H_._HHH_b1_04001_0001_0000100002_0000001_0_af2pred_0001 (protein)
chain: SSSSSSSEEEELLQEAARISRTASPEEIEKLLRLIIRLYKEGDPELREELEELIEEIKSSSSSSS
B21: il10ra_site1_normal_mot_HHH_b2_04275_000000272_0001_20_36_H_._HHH_b1_07269_0001_0000400040_0000001_0 (protein)
chain: SSSSTEESEEVYELLRELAELLHENDEEEFEEVLKEVKRLAEEANNENLRVQVEFLERALSSSSS
B22: il10ra_site1_sap_18_mot_HHH_b2_02053_af2_000000006_0001_3_19_H_._HHH_b1_01435_af2_0001_0000300017_0000001_0_0001 (protein)
chain: SSSSSEYEEYIRRALRFLRWLVEVGDEESLKRMQKAIETMIERLNNEELQELLEEVKKELSSSSS
B23: il10ra_site1_normal_mot_HHH_b1_02062_000000185_0001_1_20_H_._HHH_b2_02425_0001_0000300022_0000001_1 (protein)
chain: SSSSSTREVYELSREAARLHSEGNPEEARKVLEEAEELAEELGNLNMLATLEAVLRLLNSSSSSS
B24: il10ra_site1_sap_26_mot_HHH_b2_06767_000000020_0001_41_56_H_._HHH_b1_04644_0001_0000100011_0000001_0_0001 (protein)
chain: SSSSSSEEVEELIKEAEELLEQGNEEEALRVLLRALRLAFRESNAELLRQIWELLHRLKSSSSSS
B25: il10ra_site1_normal_mot_HHH_b1_04771_000000013_0001_40_56_H_._HHH_b1_07359_0001_0000500027_0000001_0 (protein)
chain: SSSSSSTEVLELSLKAFRALLRGNPEEARELLEEAEELARELGDEQVLRVIEELLRANSSSSSSS
B26: il10ra_site1_sap_24_mot_HHH_b2_06602_000000226_0001_1_16_H_._HHH_b1_04775_af2_0001_0000500023_0000001_0_0001_af2pred_0001 (protein)
chain: SSSSSQRERSVEIMLRLAELARELGDPERVKLTLRSAKIAAEAARNEELKEEIREVEEELSSSSS
B27: il10ra_site1_sap_12_mot_HHH_b1_05699_af2_000000138_0001_41_55_H_._16d56542c9725820401ab7c11c235cbe_0001_af2_0001_0000100001_0000001_0_0001 (protein)
chain: SSSSTREVLELVARASALASRLGDREIEKRLFQLMIEAFVTGDPELERELEELAREFLEENSSSS
B28: il10ra_site1_sap_23_mot_HHH_b2_02354_af2_000000157_0001_40_56_H_._HHH_b1_02521_af2_0001_0000300012_0000001_0_0001_af2pred_0001 (protein)
chain: SSSSSEEKHRVLRLISKALKLIFEGNPEEAEEVIEEARELVEELGDEKLKEALEMVLHMLESSSS
B29: il10ra_site1_sap_30_mot_HHH_b1_02809_af2_000000277_0001_40_57_H_._HHH_b1_05733_0001_0000200016_0000002_0_0001 (protein)
chain: SSSSSEASRRIYELLRRIVELHHEGNPEEARELIEEAKELAEEAGDRVLLWVIEWLERLVNSSSS
B30: il10ra_site1_normal_mot_HHH_b1_01011_000000096_0001_1_19_H_._HHH_b2_02204_0001_0000300042_0000002_0_af2pred_0001 (protein)
chain: SSSSDEEELLRRTARFAEWAIKQGDPRAAERFIRALEDLAKKLNDEEAEELVEQLKELLNSSSSS
B31: il10ra_site1_normal_mot_HHH_b1_01693_000000146_0001_1_17_H_._HHH_b1_03590_0001_0000400015_0000001_0_af2pred_0001 (protein)
chain: SSSSSDEEEEEVEELLREAEHIEDEEELARVLAEAAVLARRARNPELIELVLKVIIRLLRSSSSS
B32: il10ra_site1_normal_mot_HHH_b1_02397_af2_000000085_0001_39_57_H_._ems_p1-15H-GBL-16H-GABBL-16H_0062_0001_0001_0002_af2_0001_0000300018_0000001_0 (protein)
chain: SSSSSDVAELAQEALRLAFRLGDEEALQAVHEIVRKLAEGLMDPEEAQELLEELIEELRSSSSSS
B33: il10ra_site1_normal_mot_49468d6c54d8157f7969f91124172a68_0001_af2_000000173_0001_37_51_H_._HHH_b2_05549_0001_0000200010_0000002_0 (protein)
chain: SSSSSDAEEVAVELLELLREGNEEEAERVVEEAREELEEKGDPQAVNLLEVSFRLLQRAESSSSS
B34: il10ra_site1_sap_19_mot_8756ee2cf497b5429c717dfc0c0bcfd6_0001_000000186_0001_1_13_H_._HHH_b1_00330_0001_0000100004_0000001_0_0001 (protein)
chain: SSSSSSDNEELIEKLEEAVEEGDREAVIRLAQEAIRIVLRNNDAEALRELWRLIQEHASSSSSSS
B35: il10ra_site1_normal_mot_HHH_b1_06994_000000193_0001_40_55_H_._HHH_b2_00363_0001_0000200029_0000001_0 (protein)
chain: SSSSDLEELVRAALRLAKQALEAGDPRAARRLLEALAQALEQEGDEELLREVEELLEEVGSSSSS
B36: il10ra_site1_normal_mot_HHH_b1_05052_000000015_0001_1_19_H_._HHH_b1_05170_af2_0001_0000100002_0000002_1 (protein)
chain: SSSSSSDEAFRIIEEAIKLYADGNPEEAERLLEELLEQLREEGDEAMARIVEAILRLLSSSSSSS
B37: il10ra_site1_sap_17_mot_HHH_b1_00682_000000235_0001_1_20_H_._HHH_b2_02429_af2_0001_0000600019_0000002_0_0001_af2pred_0001 (protein)
chain: SSSSDEEVIELIRRISRALFRGDQEQAEELLEEAEELVKELGDEELRRALEIAEEAVRALSSSSS

The binders below were run against il10ra, Q13651 (assay: yeast display titration).

Apparent Kd, inactive:
B1 > 1250 nM
B2 no binding seen
B3 no binding seen
B4 no binding seen
B5 no binding seen
B6 no binding seen
B7 no binding seen
B8 no binding seen
B9 no binding seen
B10 no binding seen
B11 no binding seen
B12 no binding seen
B13 no binding seen
B14 no binding seen
B15 no binding seen
B16 no binding seen
B17 no binding seen
B18 no binding seen
B19 no binding seen
B20 no binding seen
B21 no binding seen
B22 no binding seen
B23 no binding seen
B24 no binding seen
B25 no binding seen
B26 no binding seen
B27 no binding seen
B28 no binding seen
B29 no binding seen
B30 no binding seen
B31 no binding seen
B32 no binding seen
B33 no binding seen
B34 no binding seen
B35 no binding seen
B36 no binding seen
B37 no binding seen

9 neighbouring records from above, for reference:
Apparent Kd, inactive:
B28 no binding seen
B29 no binding seen
B30 no binding seen
B31 no binding seen
B32 no binding seen
B33 no binding seen
B34 no binding seen
B35 no binding seen
B36 no binding seen
